Not every detail of the peptide structures is certain; ends, links or a residue may be inferred. Residues, ends and D or L forms follow the SMILES beside them.
System: bacteria
Assay: Anti-bacterial activity of the functional polypeptide (FIG. 3)

## CC[C@H](C)[C@H](NC(=O)CNC(=O)[C@H](CC(N)=O)NC(=O)[C@H](Cc1ccc(O)cc1)NC(=O)[C@@H](NC(=O)[C@@H](NC(=O)[C@H](CS)NC(=O)[C@H](Cc1ccccc1)NC(=O)[C@H](CS)NC(=O)[C@H](C)NC(=O)CNC(=O)[C@@H](NC(=O)[C@@H](N)CCCNC(=N)N)[C@@H](C)O)C(C)C)[C@@H](C)CC)C(=O)N[C@@H](CC(C)C)C(=O)N[C@@H](Cc1ccc(O)cc1)C(=O)N1CCC[C@H]1C(=O)O [EZY-1 polypeptide, RTGACFCVIYNGILYP] (H-RTGACFCVIYNGILYP-OH)
  anti-bacterial activity: a certain bacteriostatic effect

Reference: patent US11225504B2, “Functional polypeptide and its application thereof in preparing medicament for preventing and treating pulmonary fibrosis” (Guangdong Medical University, priority 2017, dated 2022)
